Laboratory results from paper PMC5069723.
These are yes or no findings as the source states them, for the method shown. In cells and extracts the contact can be indirect. Some entries that bind do so weakly or less than the wild type.

Protein sequences, listed by entry. Tags and fused reporters are not part of them. Residues count along the entry.
UniProt P84022, residues 232-425: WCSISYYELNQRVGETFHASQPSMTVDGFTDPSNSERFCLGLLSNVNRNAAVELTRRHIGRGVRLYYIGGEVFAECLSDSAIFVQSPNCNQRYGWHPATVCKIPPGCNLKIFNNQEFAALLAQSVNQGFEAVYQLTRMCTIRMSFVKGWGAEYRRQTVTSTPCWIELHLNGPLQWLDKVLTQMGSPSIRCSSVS

Target: MH2 domain of Smad3 (Smad3 C) (human) (UniProt P84022)
Test: co-IP; H1299 cells transiently transfected, 24 h; lysates immunoprecipitated with an anti-FLAG antibody, complexes eluted with 3xFLAG peptide, immunoblotted

For p53 (from UniProt P04637 1-393), the binding was “binds”.
